The test deals with BpfD (SO4323), full-length (Shewanella oneidensis MR-1) (UniProt Q8E9G0). The test is described as follows: two-hybrid; bacterial two-hybrid (BacterioMatch II) in E. coli reporter cells; bait in pBT, target in pTRG; M9 salt agar with chloramphenicol and tetracycline, with or without 3-AT, 24 h at 37°C (then 16 h at room temperature if no colonies); positives confirmed on 3-AT and streptomycin.

These are yes or no findings as the source states them, for the method shown. Binding calls can cover weak binding; strength is not graded here.

Consider “BpfA_(Nterm), the N terminus (∼200 a.a.) of BpfA (from UniProt Q8E9G6) (domain or fragment)”, for which the binding result is listed as “binds”.

(Values after publication PMC4523816.)
